PubChem BioAssay AID504408 (Broad Institute, 2011)
Out of some 300,000 compounds screened, about 5,200 (1.7%) were called active. Inconclusive means that the source gave no clear call. Such entries were picked first, then a sample of the others.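 The calls were made as follows: active = mean replicate activation of at least 50% with a set share of replicates each reaching 50%; inconclusive = only one of those two conditions met; inactive = mean below 50% and too few replicates reaching it.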

Test: HSF-1 activators, primary screen, NIH3T3-HGL cells, MG132 stress, luminescence, single point (AID 504408);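 also: 0% = median of the neutral control wells and 100% = twice that signal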
Settings: NIH3T3-HGL HSF-1 luciferase reporter, MG132, 8 h; at 9 µM; hits give high values; 100% = twice DMSO control signal

activation, inconclusive:
CC(C)(C)Cc1nc2ccccc2n1CCc1ccccc1 50.7%, COc1cccc(NC(=O)c2cc3ccccc3o/c2=N\O)c1 50.5%, Cc1ccc(O)c(NC(=O)c2cc(-c3ccc(F)cc3)on2)c1 53.4%, COc1ccccc1N1CCN(C(=O)CSc2nc3ccccc3[nH]2)CC1 54.3%, CCOC(=O)c1c(CN2CCN(CC#N)CC2)n(C)c2cc(Br)c(OC)cc12 50.9%, Cc1cccc(C(=O)NCc2nnc(SCC(=O)NC3=NCCS3)n2C)c1 50.2%, Cc1ccc(-n2nnc3c(SCC(=O)NCC4CCCO4)ncnc32)cc1 (centres undefined) 57%, Cc1cccc(NC(=O)CSc2nc(C3CC3)nc3ccccc23)c1 56.5%, Nc1cccc2c1C(=O)N(CCOc1ccccc1F)C2=O 51.7%, CN(C)S(=O)(=O)c1ccc(C(=O)NCCOc2ccccc2)cc1 52.1%, O=C(Nc1nc2ccccc2[nH]1)c1ccccc1O 52.9%, Cc1occc1C(=O)N/N=C/c1ccc(N(C)C)cc1 51.2%, COc1ccc(C(=O)NCC(=O)OCC(=O)c2ccc3c(c2)NC(=O)CO3)cc1 58.4%, CC(=O)Nc1ccc(OCC=C(Cl)Cl)cc1 59%, CCCCC(=O)N1CCN(c2nc3ccc(F)cc3s2)CC1 52.4%, Brc1ccccc1-n1nnc(-c2cnc3ccccc3c2)n1 50.4%, CN1CCN(C2=C(Cl)C(=O)N(CCc3ccccc3)C2=O)CC1 50.2%, Cc1ccc(/C=C(\C#N)c2nc3ccccc3[nH]2)s1 54.8%, COc1ccc(NC(=O)Cn2nnc(-c3ccccc3NC(=O)c3cccs3)n2)cc1 53%, Oc1ccc(-c2nnc(SCc3ccccc3)o2)cc1 51.5%, O=C(/C=C/c1cccs1)Nc1scc(-c2ccccc2)c1C(=O)O 50.9%, COc1ccc(CCNC(=O)COc2ccc(N(C)S(=O)(=O)c3ccc(Cl)cc3)cc2)cc1 51.4%, O=C(COc1ccc(Cl)cc1)NCc1cn2cc(Cl)ccc2n1 58.3%, Cc1cccnc1NC(=S)NC(=O)/C=C/c1ccco1 51.7%, CCc1ccc2[nH]c(=O)c(CN(Cc3ccccc3)Cc3nnnn3Cc3ccco3)cc2c1 53.6%, O=C(O)c1c(Cl)c(Cl)c(Cl)c(Cl)c1C(=O)N1CCCC1 52.9%, CC(=O)Nc1ccccc1C(=O)C(=O)Nc1ccc(C)c(C)c1 50.4%, N#CC1=C(c2ccccc2)/C(=C/c2ccccc2)OC1=O 128%, CCN(CC)c1ccc2c(c1)oc(=O)c1c(Cl)cc(=O)oc12 51.8%, CCN(CC)c1ccc(/C=N/NC(=O)Nc2ccccc2)cc1 58.6%, CCc1ccc(C(=O)COC(=O)c2n[nH]c3ccccc23)cc1 51.8%, C(=C\c1nc(-c2cccnc2)no1)/c1ccccc1 50.1%, c1ccc2c(c1)Cc1cc3ccccc3nc1-2 52.3%, CC1CCC(NC(=O)c2ccc3c(c2)OCO3)CC1 (centres undefined) 50.1%, Cc1ccc(OCCn2nc3ccccc3n2)c(C)c1 52.1%, O=c1cc(-c2ccc(Cl)c(Cl)c2)[nH][nH]1 56.2%, O=C1NC(c2ccc(Cl)cc2Cl)Oc2ccccc21 (centres undefined) 50.4%, CC(=O)NC1=NN(C(C)=O)C(C)(CCS(=O)(=O)c2ccc(Cl)c(Cl)c2)S1 (centres undefined) 57.4%, Cc1ccccc1CNC(=O)Nc1ccc(Cl)cc1 51.5%, Cc1nc(SCCOc2ccc(F)cc2)c2ccccc2n1 53.7%, CCOc1cccc2cc(-c3csc(NC(=O)CCC(=O)NCCCN4CCC(C)CC4)n3)c(=O)oc12 54.5%, CC(C)Oc1ccc(C(=O)NC2CCCCC2)cc1 53.8%, O=C(Cn1cnc2ccccc2c1=O)c1ccc(OC(F)F)cc1 51.7%, Cc1nc2nc(-c3ccc(F)cc3)cn2nc1C 52.3%, O=[N+]([O-])c1ccccc1-c1nc(-c2ccc(Br)o2)no1 54.1%, Cc1ccc(-c2cc(C(=O)N3N=C(C(F)F)CC3(O)C(F)F)c3ccccc3n2)cc1C (centres undefined) 50.1%, COc1ccc(-n2cc(CNCc3cccnc3)c(-c3cccc(F)c3)n2)cc1 62.1%, Cc1ccc2nc(SCn3nnc4ccccc4c3=O)[nH]c2c1 51.6%

activation, active:
Cc1ccc(C(=O)Nc2ccc(Cl)cc2C)c(Cl)c1 67.1%, C=CCn1c(SCc2cc([N+](=O)[O-])cc3c2OCOC3)nc2cc(C(=O)O)ccc2c1=O 63.3%, O=C(Cc1sc(Nc2ccccc2)nc1-c1ccccc1)NCc1ccccc1 59.9%, Cc1cccc(CSc2cn(CC(=O)N3CCOCC3)c3ccccc23)c1 75.5%, O=C1c2ccccc2C(=O)N1CCSc1ccccc1 103%, O=C(/C=C/c1ccc(Cl)cc1Cl)N(Cc1ccccc1)C1CCS(=O)(=O)C1 (centres undefined) 52.2%, CN1CCc2nc(SCc3ccc(Cl)cc3)c(C#N)c(-c3cccs3)c2C1 190%, Brc1ccc(-c2nnc(-c3ccco3)o2)cc1 62.7%, O=C1c2cccc3cc([N+](=O)[O-])cc(c23)C(=O)N1CCN1CCCC1 61.2%, O=C1CC(c2cccc(Cl)c2)CC(O)=C1C=Nc1ccccc1 (centres undefined) 116%, CCS(=O)(=O)N1Cc2ccccc2CC1C(=O)Nc1ccc(F)c(F)c1 (centres undefined) 59.5%, CC1(C)CC(=O)c2sc(NC(=O)c3ccccc3)nc2C1 53.5%, Cc1ccccc1/[N+]([O-])=C/c1cccs1 94.7%, Cc1ccc(CNC(=O)Nc2cccs2)cc1 73.2%, N#Cc1ccccc1CSc1nnc(-c2ccncc2)o1 59.9%, O=C(CCSc1ccc(Cl)cc1)N1CCCCCC1 107%, Cc1cccc(NC(=O)c2ccc(COc3ccc4ccccc4c3)o2)n1 67.9%

activation, inactive:
C/C(=N\NC(=O)c1ccccc1O)c1cccs1 29.6%, COc1ccc(CCn2c(-c3ccco3)nc3nc4ccccc4nc32)cc1 32.5%, CN(C1CCCCC1)C(CNS(=O)(=O)c1ccccc1)c1ccccc1 (centres undefined) 5.85%, Cc1cc(NS(=O)(=O)c2ccc(NC(=O)/C=C/c3ccc(C)o3)cc2)nc(C)n1 -4.4%, Cc1cc(Cl)c(OCCCCNC(C)(C)C)c(Br)c1 8.21%, CCCN1C(=O)SC(CC(=O)Nc2ccccc2)C1=O (centres undefined) -2.43%, CCC1Sc2ccc(S(=O)(=O)Nc3ccc(OC)cc3)cc2NC1=O (centres undefined) -66.3%, CN=c1scc(C)n1/N=C/c1ccc(O)cc1O 33.4%, COc1ccccc1C(=O)N/C(=C\c1cn(C)c2ccccc12)C(=O)NCCCn1ccnc1 -2.8%, CC(=O)N(C)c1ccc(NC(=O)Cc2cccs2)cc1 5.26%, COc1ccccc1N1CCN(C2CCCCC2NS(=O)(=O)c2ccccc2)CC1 (centres undefined) -11.7%, Cc1cc(C)c(O)c(-c2n[nH]c3c2C(c2cccc(O)c2)N(Cc2ccco2)C3=O)c1 (centres undefined) 47.8%, COc1cc2[nH]c(=S)nc(NCC3CCCO3)c2cc1OC (centres undefined) -9.67%, Cc1cc2c(cc1S(=O)(=O)N1CCN(c3cccc(C)c3C)CC1)OCC(=O)N2 -14.7%, CCOc1ccc(CCNC(=O)COC(=O)c2cc(OC)c(OC)cc2[N+](=O)[O-])cc1OCC -3.02%, COc1cccc(-c2nnn(CC(=O)Nc3cc(OC)c(NC(=O)c4ccco4)cc3OC)n2)c1 6.23%, COc1ccc(/C=N/NC(=O)c2ccc(NC(C)=O)cc2)cc1COc1ccc(F)cc1F -26.8%, O=C1CCCCC1C(Nc1ccc(Br)cc1)c1ccccc1 (centres undefined) -2.19%, Cc1ccccc1-c1cccc(CN2CCN(C)C(CCO)C2)c1 (centres undefined) -10.1%, CNS(=O)(=O)c1cc(NC(=O)CCNC(=O)c2ccco2)ccc1C -1.02%, COc1ccccc1CNC(=O)c1cccc(-c2ccc(C)c3ccccc23)n1 -30.4%, CC(NC(=O)c1ccccc1)c1nnc(SCc2nc3ccccc3c(=O)[nH]2)n1C (centres undefined) 16%, CCc1cccc(NC(=O)c2cccc3c2C(=O)N(C2CCCCC2)C3)c1 0.103%, COc1ccc(-c2csc(Nc3cccc(C)n3)n2)cc1 37.1%, Cc1ccc(N(CC(=O)NN=C2CCN(C)CC2)S(=O)(=O)c2ccccc2)c(C)c1 29.1%, COc1ccc(NC(=O)C(=O)NNC(=O)C(C)Oc2ccc(Cl)cc2Cl)cc1 (centres undefined) -3.12%, COc1ccc(-c2cnn3c4c(c(C)nc23)CCN4C2CCCC2)cc1OC -13.6%, CCN1C(=O)[C@@H]2[C@@H](c3ccc(-c4cccc(Cl)c4)cc3)N3CCC[C@@]3(C(=O)OC)[C@@H]2C1=O 15%, Cn1nc(-c2ccc(C(=O)NCCO)cc2)c2ccccc2c1=O -8.13%
